The test system of the assay is P388 leukemia ip, CD2F1 mice, survival T/C. Nature of the assay: NCI In Vivo Anticancer Drug Screen. Data for tumor model P388 Leukemia (intraperitoneal) in CD2F1 (CDF1) mice. To be noted: T/C endpoint: median survival time, higher T/C = longer survival.
Where [1] appears, read: dose: 50.0 mg/kg/injection, schedule: Q01DX005 (ip), vehicle: saline with Tween-80.
The mark [2] stands for this setting: dose: 100.0 mg/kg/injection, schedule: Q01DX005 (ip), vehicle: saline with Tween-80.
Setting [3] is: dose: 200.0 mg/kg/injection, schedule: Q01DX005 (ip), vehicle: saline with Tween-80.
[4] abbreviates: dose: 100.0 mg/kg/injection, schedule: Q01DX009 (ip), vehicle: saline with Tween-80.
[5] abbreviates: dose: 120.0 mg/kg/injection, schedule: Q01DX005 (ip), vehicle: saline with Tween-80.
Where [6] appears, read: dose: 240.0 mg/kg/injection, schedule: Q01DX005 (ip), vehicle: saline with Tween-80.
Setting [7] is: dose: 200.0 mg/kg/injection, schedule: Q01DX005 (ip), vehicle: Klucel (hydroxypropylcellulose) (HPC).
The mark [8] stands for this setting: dose: 2400.0 mg/kg/injection, schedule: Q01DX005 (ip), vehicle: saline.

The list shows only some results of the screen, not a fair sample: it is rich in T/C values a quarter to a half above the control, in often repeated tests (any T/C) and in doses without a T/C. Further doses and runs are listed elsewhere. T/C: endpoint of the treated group in % of that of the vehicle group. Some doses have a count of surviving animals in place of a T/C: the source holds a T/C of zero for them, seemingly a mark for toxic or unscored doses. Some survivor counts are full or nearly so, which does not show that the dose was tolerated: the source hardly ever lists a survival T/C far under the control, and the zero likely stands for such cases as well. Survivors were counted at the toxicity check, usually on the fifth day, unless a day is given; later deaths do not show. Schedule codes are those of the source, taken here to give the interval after Q, in days (D) or hours (H), and the number of doses after X. Some entries were tested several times; their values stand side by side, smallest first. Signs of the kind (2×) stand for listed records that agree. Some structures stand for samples that the source files as different forms (salt, stereo form or complex); doses refer to the form tested. Where survival is the endpoint, the PubChem record calls one and a half times the control and up active, and a quarter to a half above the control has no call in these data; cut-offs in other NCI protocols can differ. Some T/C values carry the count of animals alive at the toxicity check (mostly the fifth day); without a count, all were alive then.

In the case of `CCOC(=O)C1=CNc2ccccc2N=C1N`, the survivor count is, setting by setting: under setting [1], 2 of 5; under setting [2], 0 of 5; under setting [3], 0 of 5.

On to `CCOP(=O)(CC(=O)c1cc2ccccc2[nH]1)OCC`, for which the survivor count (dose: 100.0 mg/kg/injection, schedule: Q01DX009 (ip), vehicle: saline) is recorded as 6 of 6.

`FC(F)(F)C1(C(F)(F)F)O[Si]2(OC(C(F)(F)F)(C(F)(F)F)c3ccccc32)c2ccccc21`: the survivor count (dose: 100.0 mg/kg/injection, schedule: Q01DX005 (ip), vehicle: distilled water + Tween-80 + alcohol) is 0 of 6; the survivor count (dose: 200.0 mg/kg/injection, schedule: Q01DX005 (ip), vehicle: distilled water + Tween-80 + alcohol) is 0 of 6; the survivor count under setting [3] is listed as 0 of 6.

Consider `Oc1ccc(CCNCc2ccc3c(c2)OCO3)cc1O`, for which, under “dose: 400.0 mg/kg/injection, schedule: Q04DX002 (ip), vehicle: Klucel (hydroxypropylcellulose) (HPC)”, the survivor count was 3 of 6.

Turning to `CN(C(=O)OCc1ccccc1)c1ccc(C(=O)NC(CCC(=O)OCc2ccccc2)C(=O)OCc2ccccc2)cc1` (stereo not drawn), the survivor count (dose: 50.0 mg/kg/injection, schedule: Q01DX009 (ip), vehicle: saline with Tween-80) was 6 of 6 and the survivor count under setting [4] is on record as 6 of 6.

As for `CCN(CC)CCOc1ccc(C2=C(c3ccccc3)CCc3cc(OC)ccc32)cc1`, the survivor count (dose: 400.0 mg/kg/injection, schedule: Q04DX003 (ip), vehicle: saline with Tween-80) was 0 of 6.

For the compound `CC(C)C(NC(=O)[C@@H](C(C)C)N1C(=O)c2ccccc2C1=O)C(=O)O` (stereo partly drawn), under setting [2], the survivor count is recorded as 5 of 5.

Turning to `N#Cc1cnn(-c2cc(Cl)ccc2Cl)c1N`, the survivor count (dose: 400.0 mg/kg/injection, schedule: Q01DX009 (ip), vehicle: saline with Tween-80) is 1 of 6 and 3 of 6.

`CCN(CC)CCSCCN(CC)CC`: under setting [3], the survivor count was 0 of 6.

Turning to `CC(C)(C)SC(=O)C1CCCCC1`, the survivor count (dose: 200.0 mg/kg/injection, schedule: Q01DX009 (ip), vehicle: saline with Tween-80) is reported as 4 of 6.

For the compound `c1ccc(C(Nc2nncs2)Nc2nncs2)cc1`, under setting [5], the T/C is 131 % of control.

Turning to `COc1cc2cccc(N)c2cc1OC`, the survivor count (dose: 100.0 mg/kg/injection, schedule: Q01DX009 (ip), vehicle: water) was 1 of 6.

With `C=CCN(CC=C)C1CCOC(OC)C1O` (stereo not drawn), where the note is “dose: 240.0 mg/kg/injection, schedule: Q01DX005 (ip), vehicle: saline”, the T/C was 128 % of control.

Consider `Nc1ncncc1-c1ccc(F)cc1`, for which the survivor count (dose: 200.0 mg/kg/injection, schedule: Q01DX009 (ip), vehicle: saline) is 0 of 6.

Take `C=CCOc1cc2c(cc1OCC=C)C(=O)c1cc3c(cc1C2=O)OCO3`: the survivor count (dose: 30.0 mg/kg/injection, schedule: Q01DX005 (ip), vehicle: saline with Tween-80) is recorded as 6 of 6; the survivor count (dose: 60.0 mg/kg/injection, schedule: Q01DX005 (ip), vehicle: saline with Tween-80) was 6 of 6; the survivor count under setting [5] is recorded as 6 of 6; the survivor count under setting [6] is given as 6 of 6.

For the compound `N#CNC(=Nc1ccccc1)[N](C#N)[Sn]([c]1ccccc1)([c]1ccccc1)[c]1ccccc1`, the survivor count reads like this: (dose: 12.5 mg/kg/injection, schedule: Q01DX005 (ip), vehicle: Klucel (hydroxypropylcellulose) (HPC)) 1 of 6; (dose: 25.0 mg/kg/injection, schedule: Q01DX005 (ip), vehicle: Klucel (hydroxypropylcellulose) (HPC)) 0 of 6; (dose: 50.0 mg/kg/injection, schedule: Q01DX005 (ip), vehicle: Klucel (hydroxypropylcellulose) (HPC)) 0 of 6; (dose: 100.0 mg/kg/injection, schedule: Q01DX005 (ip), vehicle: Klucel (hydroxypropylcellulose) (HPC)) 0 of 6; under setting [7], 0 of 6.

For `COC1=CC(=O)C2CC=CC(CC(=O)O)C2(C)C1=O` (stereo not drawn), the survivor count under setting [7] was 0 of 5.

With `C[C@H](N)C(=O)N[C@@H]1[C@H]2C(=C(O)C[C@@H](O)[C@@H]2O)C(=O)O[C@@H]1C`, the T/C (dose: 150.0 mg/kg/injection, schedule: Q01DX005 (ip), vehicle: saline) was 135 % of control; the T/C (dose: 300.0 mg/kg/injection, schedule: Q01DX005 (ip), vehicle: saline, evaluated on day 20) is 137 % of control; the T/C (dose: 300.0 mg/kg/injection, schedule: Q01DX005 (ip), vehicle: saline, evaluated on day 30) is reported as 108, 126, 130 % of control; the T/C (dose: 300.0 mg/kg/injection, schedule: Q01DX005 (ip), vehicle: suspension in saline) is 127 % of control; the T/C (dose: 600.0 mg/kg/injection, schedule: Q01DX005 (ip), vehicle: saline, evaluated on day 20) is 153 % of control; the T/C (dose: 600.0 mg/kg/injection, schedule: Q01DX005 (ip), vehicle: saline, evaluated on day 30) was 142, 151, 160 % of control. Moreover, the T/C is 173 % of control (dose: 1200.0 mg/kg/injection, schedule: Q01DX005 (ip), vehicle: saline, evaluated on day 20); 146, 165, 167 % of control (dose: 1200.0 mg/kg/injection, schedule: Q01DX005 (ip), vehicle: saline, evaluated on day 30); 195 % of control [5 of 6 alive] under setting [8]. Also, the survivor count is, setting by setting: (dose: 1200.0 mg/kg/injection, schedule: Q01DX005 (ip), vehicle: suspension in saline) 3 of 6; under setting [8], 2 of 6 (2×) and 3 of 6; (dose: 2400.0 mg/kg/injection, schedule: Q01DX005 (ip), vehicle: suspension in saline) 1 of 6.

As for `Nc1ccc2c(-c3ccccc3)cc(=O)[nH]c2c1`, the survivor count under setting [7] is listed as 5 of 5.

As for `O=C(NCc1ccccc1)Nc1cccc2c(NC(=O)NCc3ccccc3)cccc12`, the survivor count was 5 of 5 under setting [5] and 6 of 6 under setting [6].

With `COc1cccc2c1C(=O)c1c(O)c3c(c(O)c1C2=O)CC(O)(c1cscn1)CC3OC1CC(N)C(O)C(C)O1` (stereo not drawn), where the note is “dose: 200.0 mg/kg/injection, schedule: Q04DX003 (ip), vehicle: water”, the survivor count was 1 of 3.

For the compound `COc1ccc2nc(N(C)C)cc(N(C)C)c2c1`, the survivor count is reported as 5 of 6 (dose: 50.0 mg/kg/injection, schedule: Q01DX009 (ip), vehicle: Klucel (hydroxypropylcellulose) (HPC)); 0 of 6 (dose: 100.0 mg/kg/injection, schedule: Q01DX009 (ip), vehicle: Klucel (hydroxypropylcellulose) (HPC)); 0 of 6 (dose: 200.0 mg/kg/injection, schedule: Q01DX009 (ip), vehicle: Klucel (hydroxypropylcellulose) (HPC)).

On to `CC(C)(C)c1cc2c3c(c1)C(C)(C)OS3(C)OC2(C)C`, for which the survivor count runs as follows: (dose: 50.0 mg/kg/injection, schedule: Q04DX003 (ip), vehicle: saline with Tween-80) 1 of 6; (dose: 100.0 mg/kg/injection, schedule: Q04DX003 (ip), vehicle: saline with Tween-80) 0 of 6; (dose: 200.0 mg/kg/injection, schedule: Q04DX003 (ip), vehicle: saline with Tween-80) 0 of 6.

Turning to `O=C1N(Br)C(=O)C(c2ccc(Cl)cc2)(c2ccc(Cl)cc2)N1Br`, the T/C reads like this: (dose: 16.5 mg/kg/injection, schedule: Q01DX009 (ip), vehicle: saline with Tween-80) 136 % of control; (dose: 25.0 mg/kg/injection, schedule: Q01DX009 (ip), vehicle: saline with Tween-80) 136 % of control; (dose: 37.5 mg/kg/injection, schedule: Q01DX009 (ip), vehicle: saline with Tween-80) 145 % of control; (dose: 44.0 mg/kg/injection, schedule: Q01DX009 (ip), vehicle: saline with Tween-80) 131 % of control; (dose: 66.0 mg/kg/injection, schedule: Q01DX009 (ip), vehicle: saline with Tween-80) 145 % of control; under setting [4], 136 % of control.

Take `O=C1c2ccccc2-c2c1c1ccccc1c(=O)n2Cc1ccco1`: the survivor count (dose: 6.25 mg/kg/injection, schedule: Q01DX005 (ip), vehicle: saline with Tween-80) is reported as 5 of 5; the survivor count (dose: 12.5 mg/kg/injection, schedule: Q01DX005 (ip), vehicle: saline with Tween-80) is on record as 5 of 5; the survivor count (dose: 25.0 mg/kg/injection, schedule: Q01DX005 (ip), vehicle: saline with Tween-80) is on record as 5 of 5; the survivor count under setting [1] is on record as 5 of 5; the survivor count under setting [2] was 5 of 5; the survivor count under setting [3] is 5 of 5.
